Measured values: the supplement of paper PMC10849652
The list shows a part of the results.

Chains of the proteins cited; added tags and fusions are not shown. Lines headed by an entry give the natural chain unless they say otherwise; changes in a name come on top.
UniProt Q15527: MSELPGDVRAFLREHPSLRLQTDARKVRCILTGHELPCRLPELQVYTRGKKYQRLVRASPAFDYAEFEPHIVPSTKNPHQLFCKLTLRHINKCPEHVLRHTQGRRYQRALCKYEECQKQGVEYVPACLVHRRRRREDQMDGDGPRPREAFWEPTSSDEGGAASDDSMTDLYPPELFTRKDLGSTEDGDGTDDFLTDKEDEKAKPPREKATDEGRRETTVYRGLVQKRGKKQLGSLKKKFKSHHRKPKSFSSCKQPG
UniProt Q5VSL9: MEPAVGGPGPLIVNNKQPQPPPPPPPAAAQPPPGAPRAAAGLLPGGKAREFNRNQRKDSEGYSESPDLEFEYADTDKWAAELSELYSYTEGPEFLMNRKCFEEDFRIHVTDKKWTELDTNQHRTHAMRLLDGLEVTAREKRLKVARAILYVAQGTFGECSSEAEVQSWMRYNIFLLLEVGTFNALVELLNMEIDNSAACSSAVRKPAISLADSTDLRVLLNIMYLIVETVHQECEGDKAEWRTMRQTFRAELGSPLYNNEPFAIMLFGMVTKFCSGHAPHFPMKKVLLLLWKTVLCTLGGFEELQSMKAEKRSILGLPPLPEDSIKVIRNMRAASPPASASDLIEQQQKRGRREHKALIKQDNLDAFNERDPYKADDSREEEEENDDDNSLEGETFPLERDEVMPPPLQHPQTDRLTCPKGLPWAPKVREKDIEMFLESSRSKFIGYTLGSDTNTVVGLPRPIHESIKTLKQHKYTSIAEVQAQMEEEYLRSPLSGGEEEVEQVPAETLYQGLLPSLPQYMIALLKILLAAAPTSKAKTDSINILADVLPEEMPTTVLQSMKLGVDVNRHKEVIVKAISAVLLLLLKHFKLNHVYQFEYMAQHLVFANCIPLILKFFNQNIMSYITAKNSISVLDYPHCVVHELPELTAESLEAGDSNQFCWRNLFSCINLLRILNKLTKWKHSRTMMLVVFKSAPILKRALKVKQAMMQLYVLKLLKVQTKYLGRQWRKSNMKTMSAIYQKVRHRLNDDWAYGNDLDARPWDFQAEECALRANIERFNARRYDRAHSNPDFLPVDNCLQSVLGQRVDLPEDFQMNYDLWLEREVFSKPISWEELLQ
UniProt Q92797: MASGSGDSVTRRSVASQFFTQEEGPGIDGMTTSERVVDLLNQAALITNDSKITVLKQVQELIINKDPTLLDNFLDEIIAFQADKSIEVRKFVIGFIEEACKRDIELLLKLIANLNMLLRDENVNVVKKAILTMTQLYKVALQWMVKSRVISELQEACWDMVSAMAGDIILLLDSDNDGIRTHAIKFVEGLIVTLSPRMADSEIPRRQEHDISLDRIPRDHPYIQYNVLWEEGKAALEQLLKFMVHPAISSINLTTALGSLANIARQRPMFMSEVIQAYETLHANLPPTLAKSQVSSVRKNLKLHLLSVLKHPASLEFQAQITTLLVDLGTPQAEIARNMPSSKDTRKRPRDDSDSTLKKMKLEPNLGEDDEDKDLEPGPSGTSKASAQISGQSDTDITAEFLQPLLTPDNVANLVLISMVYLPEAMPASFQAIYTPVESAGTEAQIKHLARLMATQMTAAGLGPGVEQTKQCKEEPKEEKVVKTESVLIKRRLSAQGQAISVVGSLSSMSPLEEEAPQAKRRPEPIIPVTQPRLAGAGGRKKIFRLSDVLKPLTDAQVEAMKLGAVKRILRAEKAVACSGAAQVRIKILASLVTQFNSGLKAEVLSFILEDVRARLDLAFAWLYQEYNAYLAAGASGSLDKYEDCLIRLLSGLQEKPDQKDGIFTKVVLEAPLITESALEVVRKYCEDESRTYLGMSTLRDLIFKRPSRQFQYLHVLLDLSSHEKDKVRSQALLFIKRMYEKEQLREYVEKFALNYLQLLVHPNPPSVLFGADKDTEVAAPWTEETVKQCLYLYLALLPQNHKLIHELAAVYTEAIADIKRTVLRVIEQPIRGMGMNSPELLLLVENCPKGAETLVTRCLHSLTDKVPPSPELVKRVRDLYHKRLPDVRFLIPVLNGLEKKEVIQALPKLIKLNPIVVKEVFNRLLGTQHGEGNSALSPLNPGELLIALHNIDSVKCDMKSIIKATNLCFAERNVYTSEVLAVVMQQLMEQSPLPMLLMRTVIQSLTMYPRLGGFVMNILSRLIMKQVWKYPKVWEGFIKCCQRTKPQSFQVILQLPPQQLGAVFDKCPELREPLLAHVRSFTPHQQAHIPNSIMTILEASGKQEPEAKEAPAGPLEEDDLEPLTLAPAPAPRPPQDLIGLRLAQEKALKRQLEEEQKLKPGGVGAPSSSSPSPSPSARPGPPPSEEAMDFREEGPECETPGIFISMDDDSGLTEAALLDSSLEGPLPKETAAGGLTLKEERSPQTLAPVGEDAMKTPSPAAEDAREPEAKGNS
UniProt Q96BW9: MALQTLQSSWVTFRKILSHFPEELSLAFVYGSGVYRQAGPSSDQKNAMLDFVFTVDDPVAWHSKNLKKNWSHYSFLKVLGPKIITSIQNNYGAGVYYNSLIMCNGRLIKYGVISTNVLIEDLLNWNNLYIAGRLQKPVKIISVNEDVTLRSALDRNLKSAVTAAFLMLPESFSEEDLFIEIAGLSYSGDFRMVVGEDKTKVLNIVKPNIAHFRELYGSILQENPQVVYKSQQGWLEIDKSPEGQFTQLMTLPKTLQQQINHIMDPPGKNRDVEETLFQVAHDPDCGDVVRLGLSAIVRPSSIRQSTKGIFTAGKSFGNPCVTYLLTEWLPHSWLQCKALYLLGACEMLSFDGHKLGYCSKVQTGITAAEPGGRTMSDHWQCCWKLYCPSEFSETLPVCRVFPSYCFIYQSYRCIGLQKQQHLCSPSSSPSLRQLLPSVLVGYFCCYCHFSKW
UniProt Q7Z7C8, whole entry, looked up: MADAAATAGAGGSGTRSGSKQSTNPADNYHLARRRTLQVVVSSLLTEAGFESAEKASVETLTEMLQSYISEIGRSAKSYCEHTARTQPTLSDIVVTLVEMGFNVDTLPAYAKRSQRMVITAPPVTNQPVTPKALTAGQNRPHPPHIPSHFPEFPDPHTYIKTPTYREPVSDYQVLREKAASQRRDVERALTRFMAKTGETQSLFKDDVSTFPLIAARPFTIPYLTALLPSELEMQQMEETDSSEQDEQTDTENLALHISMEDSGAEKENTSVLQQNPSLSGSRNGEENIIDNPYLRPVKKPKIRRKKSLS
UniProt O60506: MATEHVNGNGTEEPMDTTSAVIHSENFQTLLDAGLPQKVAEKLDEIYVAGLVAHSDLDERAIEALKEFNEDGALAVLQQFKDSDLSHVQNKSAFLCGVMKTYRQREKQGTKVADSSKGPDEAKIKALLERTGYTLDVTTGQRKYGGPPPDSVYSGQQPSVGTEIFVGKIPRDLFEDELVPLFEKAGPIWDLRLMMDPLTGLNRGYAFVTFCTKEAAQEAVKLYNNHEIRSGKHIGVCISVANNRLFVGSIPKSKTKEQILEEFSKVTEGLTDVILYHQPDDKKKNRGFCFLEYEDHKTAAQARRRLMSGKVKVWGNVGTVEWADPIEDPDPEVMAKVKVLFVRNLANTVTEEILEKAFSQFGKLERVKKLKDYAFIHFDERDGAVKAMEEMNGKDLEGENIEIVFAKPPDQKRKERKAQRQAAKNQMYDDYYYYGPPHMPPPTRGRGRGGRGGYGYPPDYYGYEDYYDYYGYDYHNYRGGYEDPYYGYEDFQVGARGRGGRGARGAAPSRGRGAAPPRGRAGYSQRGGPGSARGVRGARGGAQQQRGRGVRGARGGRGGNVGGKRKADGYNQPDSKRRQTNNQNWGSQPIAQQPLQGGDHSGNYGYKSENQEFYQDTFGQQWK
UniProt Q15526: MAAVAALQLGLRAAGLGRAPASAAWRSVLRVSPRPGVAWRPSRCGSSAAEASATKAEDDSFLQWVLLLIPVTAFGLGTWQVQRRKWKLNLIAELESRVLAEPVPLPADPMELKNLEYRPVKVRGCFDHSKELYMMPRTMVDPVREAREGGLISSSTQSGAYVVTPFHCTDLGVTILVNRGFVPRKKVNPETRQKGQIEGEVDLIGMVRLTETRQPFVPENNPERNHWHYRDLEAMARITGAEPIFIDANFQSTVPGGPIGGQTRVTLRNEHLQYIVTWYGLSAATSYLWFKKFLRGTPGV
UniProt P26639: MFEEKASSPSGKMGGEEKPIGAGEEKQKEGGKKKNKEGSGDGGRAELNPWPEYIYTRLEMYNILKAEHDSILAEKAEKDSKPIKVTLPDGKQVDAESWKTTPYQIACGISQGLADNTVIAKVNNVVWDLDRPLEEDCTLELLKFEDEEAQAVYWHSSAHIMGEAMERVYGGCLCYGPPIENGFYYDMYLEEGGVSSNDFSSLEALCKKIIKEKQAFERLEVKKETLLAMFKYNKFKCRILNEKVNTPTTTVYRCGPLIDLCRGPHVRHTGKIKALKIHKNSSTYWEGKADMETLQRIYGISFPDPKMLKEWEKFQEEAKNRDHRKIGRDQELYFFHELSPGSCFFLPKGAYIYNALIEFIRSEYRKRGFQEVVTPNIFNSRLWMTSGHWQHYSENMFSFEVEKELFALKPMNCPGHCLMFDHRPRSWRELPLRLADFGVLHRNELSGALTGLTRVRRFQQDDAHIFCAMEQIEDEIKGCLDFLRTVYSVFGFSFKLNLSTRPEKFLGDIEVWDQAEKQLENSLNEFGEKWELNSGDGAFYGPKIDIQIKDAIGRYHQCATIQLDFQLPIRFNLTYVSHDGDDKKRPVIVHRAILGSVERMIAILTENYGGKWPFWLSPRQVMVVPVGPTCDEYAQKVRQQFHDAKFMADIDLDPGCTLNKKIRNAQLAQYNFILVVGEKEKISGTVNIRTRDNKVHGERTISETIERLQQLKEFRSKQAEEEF
UniProt Q8NHG7: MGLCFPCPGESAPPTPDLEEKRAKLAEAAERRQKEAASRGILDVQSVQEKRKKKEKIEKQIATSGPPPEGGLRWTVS

What was measured:
Experiment in all cases: log2 fold change, soluble protein after heating vs DMSO (PISA); higher = thermal stabilisation; K562 cells, 10 uM, 30 min; active = over 0.2 and 3.5 SD of the protein, either way, in both replicates (recomputed)
[1] = compound: C1=CC=C(C=C1)[C@H](COC2=CC3=C(C=C2)NC(=O)N3)NC(=O)C4=CC=CN(C4=O)CC5=CC(=C(C=C5)F)F
Summary of the method: (§1)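 K562 cells at 2×10^6 cells/mL were treated for 30 min with 10 μM compound, and aliquots were heated for 3 min over 48°C-58°C before pooling. Extraction used PBS with 0.5% NP-40 at 4°C, and soluble protein was the supernatant after 21,000xg for 90 min, measured by TMTpro 16plex LC-MS/MS with channel sums equalised. Thermal stability values, relative to control samples and from duplicates, are log2 fold changes.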

[2] = compound: CC1=C(SC2=C1C(=N[C@H](C3=NN=C(N32)C)CC(=O)N)C4=CC=C(C=C4)Cl)C
Summary of the method: as §1

[3] = compound: CC1=C2C(=CC=C1)N=C(N(C2=O)C3=CC=CC=C3C)CN4C=NC5=C(N=CN=C54)N
Summary of the method: as §1

[4] = compound: Cc1sc2c(c1C)C(c1ccc(Cl)cc1)=N[C@@H](CC(=O)OC(C)(C)C)c1nnc(C)n1-2
Summary of the method: as §1

[5] = compound: c1ccc([C@@H]2C[C@H]2NC2CCNCC2)cc1
Summary of the method: as §1

Measured: log2 fold change

SURF2 (UniProt Q15527)
inactive: [1] 0.056 | [2] -0.018 | [3] 0.033 | [4] -0.047 | [5] -0.044

STRIP1 (UniProt Q5VSL9)
inactive: [1] -0.064 | [2] 0 | [3] -0.002 | [4] 0.01 | [5] 0.001

SYMPK (UniProt Q92797)
inactive: [1] -0.127 | [2] 0.034 | [3] 0.101 | [4] -0.006 | [5] 0.02

TAMM41 isoform 3 (UniProt Q96BW9)
inactive: [1] -0.012 | [2] 0.1 | [3] 0.09 | [4] -0.06 | [5] 0.001

TAF8 isoform 2 (UniProt Q7Z7C8)
inactive: [1] 0.012 | [2] -0.028 | [3] 0.053 | [4] -0.042 | [5] -0.029

SYNCRIP (UniProt O60506)
inactive: [1] 0.055 | [2] -0.15 | [3] -0.089 | [4] 0.152 | [5] 0.017

SURF1 (UniProt Q15526)
inactive: [1] -0.015 | [2] -0.018 | [3] 0.15 | [4] -0.101 | [5] 0.063

TARS1 (UniProt P26639)
inactive: [1] -0.043 | [2] 0.034 | [3] 0.017 | [4] 0.012 | [5] -0.015

SVIP (UniProt Q8NHG7)
inactive: [1] 0.036 | [2] 0.046 | [3] 0.028 | [4] -0.084 | [5] -0.022
